These results are taken from publication PMC11240389.

By UniProt entry, the sequences of proteins in these tests, tags left out. Residues count along the entry.
UniProt Q07954, residues 20-4544: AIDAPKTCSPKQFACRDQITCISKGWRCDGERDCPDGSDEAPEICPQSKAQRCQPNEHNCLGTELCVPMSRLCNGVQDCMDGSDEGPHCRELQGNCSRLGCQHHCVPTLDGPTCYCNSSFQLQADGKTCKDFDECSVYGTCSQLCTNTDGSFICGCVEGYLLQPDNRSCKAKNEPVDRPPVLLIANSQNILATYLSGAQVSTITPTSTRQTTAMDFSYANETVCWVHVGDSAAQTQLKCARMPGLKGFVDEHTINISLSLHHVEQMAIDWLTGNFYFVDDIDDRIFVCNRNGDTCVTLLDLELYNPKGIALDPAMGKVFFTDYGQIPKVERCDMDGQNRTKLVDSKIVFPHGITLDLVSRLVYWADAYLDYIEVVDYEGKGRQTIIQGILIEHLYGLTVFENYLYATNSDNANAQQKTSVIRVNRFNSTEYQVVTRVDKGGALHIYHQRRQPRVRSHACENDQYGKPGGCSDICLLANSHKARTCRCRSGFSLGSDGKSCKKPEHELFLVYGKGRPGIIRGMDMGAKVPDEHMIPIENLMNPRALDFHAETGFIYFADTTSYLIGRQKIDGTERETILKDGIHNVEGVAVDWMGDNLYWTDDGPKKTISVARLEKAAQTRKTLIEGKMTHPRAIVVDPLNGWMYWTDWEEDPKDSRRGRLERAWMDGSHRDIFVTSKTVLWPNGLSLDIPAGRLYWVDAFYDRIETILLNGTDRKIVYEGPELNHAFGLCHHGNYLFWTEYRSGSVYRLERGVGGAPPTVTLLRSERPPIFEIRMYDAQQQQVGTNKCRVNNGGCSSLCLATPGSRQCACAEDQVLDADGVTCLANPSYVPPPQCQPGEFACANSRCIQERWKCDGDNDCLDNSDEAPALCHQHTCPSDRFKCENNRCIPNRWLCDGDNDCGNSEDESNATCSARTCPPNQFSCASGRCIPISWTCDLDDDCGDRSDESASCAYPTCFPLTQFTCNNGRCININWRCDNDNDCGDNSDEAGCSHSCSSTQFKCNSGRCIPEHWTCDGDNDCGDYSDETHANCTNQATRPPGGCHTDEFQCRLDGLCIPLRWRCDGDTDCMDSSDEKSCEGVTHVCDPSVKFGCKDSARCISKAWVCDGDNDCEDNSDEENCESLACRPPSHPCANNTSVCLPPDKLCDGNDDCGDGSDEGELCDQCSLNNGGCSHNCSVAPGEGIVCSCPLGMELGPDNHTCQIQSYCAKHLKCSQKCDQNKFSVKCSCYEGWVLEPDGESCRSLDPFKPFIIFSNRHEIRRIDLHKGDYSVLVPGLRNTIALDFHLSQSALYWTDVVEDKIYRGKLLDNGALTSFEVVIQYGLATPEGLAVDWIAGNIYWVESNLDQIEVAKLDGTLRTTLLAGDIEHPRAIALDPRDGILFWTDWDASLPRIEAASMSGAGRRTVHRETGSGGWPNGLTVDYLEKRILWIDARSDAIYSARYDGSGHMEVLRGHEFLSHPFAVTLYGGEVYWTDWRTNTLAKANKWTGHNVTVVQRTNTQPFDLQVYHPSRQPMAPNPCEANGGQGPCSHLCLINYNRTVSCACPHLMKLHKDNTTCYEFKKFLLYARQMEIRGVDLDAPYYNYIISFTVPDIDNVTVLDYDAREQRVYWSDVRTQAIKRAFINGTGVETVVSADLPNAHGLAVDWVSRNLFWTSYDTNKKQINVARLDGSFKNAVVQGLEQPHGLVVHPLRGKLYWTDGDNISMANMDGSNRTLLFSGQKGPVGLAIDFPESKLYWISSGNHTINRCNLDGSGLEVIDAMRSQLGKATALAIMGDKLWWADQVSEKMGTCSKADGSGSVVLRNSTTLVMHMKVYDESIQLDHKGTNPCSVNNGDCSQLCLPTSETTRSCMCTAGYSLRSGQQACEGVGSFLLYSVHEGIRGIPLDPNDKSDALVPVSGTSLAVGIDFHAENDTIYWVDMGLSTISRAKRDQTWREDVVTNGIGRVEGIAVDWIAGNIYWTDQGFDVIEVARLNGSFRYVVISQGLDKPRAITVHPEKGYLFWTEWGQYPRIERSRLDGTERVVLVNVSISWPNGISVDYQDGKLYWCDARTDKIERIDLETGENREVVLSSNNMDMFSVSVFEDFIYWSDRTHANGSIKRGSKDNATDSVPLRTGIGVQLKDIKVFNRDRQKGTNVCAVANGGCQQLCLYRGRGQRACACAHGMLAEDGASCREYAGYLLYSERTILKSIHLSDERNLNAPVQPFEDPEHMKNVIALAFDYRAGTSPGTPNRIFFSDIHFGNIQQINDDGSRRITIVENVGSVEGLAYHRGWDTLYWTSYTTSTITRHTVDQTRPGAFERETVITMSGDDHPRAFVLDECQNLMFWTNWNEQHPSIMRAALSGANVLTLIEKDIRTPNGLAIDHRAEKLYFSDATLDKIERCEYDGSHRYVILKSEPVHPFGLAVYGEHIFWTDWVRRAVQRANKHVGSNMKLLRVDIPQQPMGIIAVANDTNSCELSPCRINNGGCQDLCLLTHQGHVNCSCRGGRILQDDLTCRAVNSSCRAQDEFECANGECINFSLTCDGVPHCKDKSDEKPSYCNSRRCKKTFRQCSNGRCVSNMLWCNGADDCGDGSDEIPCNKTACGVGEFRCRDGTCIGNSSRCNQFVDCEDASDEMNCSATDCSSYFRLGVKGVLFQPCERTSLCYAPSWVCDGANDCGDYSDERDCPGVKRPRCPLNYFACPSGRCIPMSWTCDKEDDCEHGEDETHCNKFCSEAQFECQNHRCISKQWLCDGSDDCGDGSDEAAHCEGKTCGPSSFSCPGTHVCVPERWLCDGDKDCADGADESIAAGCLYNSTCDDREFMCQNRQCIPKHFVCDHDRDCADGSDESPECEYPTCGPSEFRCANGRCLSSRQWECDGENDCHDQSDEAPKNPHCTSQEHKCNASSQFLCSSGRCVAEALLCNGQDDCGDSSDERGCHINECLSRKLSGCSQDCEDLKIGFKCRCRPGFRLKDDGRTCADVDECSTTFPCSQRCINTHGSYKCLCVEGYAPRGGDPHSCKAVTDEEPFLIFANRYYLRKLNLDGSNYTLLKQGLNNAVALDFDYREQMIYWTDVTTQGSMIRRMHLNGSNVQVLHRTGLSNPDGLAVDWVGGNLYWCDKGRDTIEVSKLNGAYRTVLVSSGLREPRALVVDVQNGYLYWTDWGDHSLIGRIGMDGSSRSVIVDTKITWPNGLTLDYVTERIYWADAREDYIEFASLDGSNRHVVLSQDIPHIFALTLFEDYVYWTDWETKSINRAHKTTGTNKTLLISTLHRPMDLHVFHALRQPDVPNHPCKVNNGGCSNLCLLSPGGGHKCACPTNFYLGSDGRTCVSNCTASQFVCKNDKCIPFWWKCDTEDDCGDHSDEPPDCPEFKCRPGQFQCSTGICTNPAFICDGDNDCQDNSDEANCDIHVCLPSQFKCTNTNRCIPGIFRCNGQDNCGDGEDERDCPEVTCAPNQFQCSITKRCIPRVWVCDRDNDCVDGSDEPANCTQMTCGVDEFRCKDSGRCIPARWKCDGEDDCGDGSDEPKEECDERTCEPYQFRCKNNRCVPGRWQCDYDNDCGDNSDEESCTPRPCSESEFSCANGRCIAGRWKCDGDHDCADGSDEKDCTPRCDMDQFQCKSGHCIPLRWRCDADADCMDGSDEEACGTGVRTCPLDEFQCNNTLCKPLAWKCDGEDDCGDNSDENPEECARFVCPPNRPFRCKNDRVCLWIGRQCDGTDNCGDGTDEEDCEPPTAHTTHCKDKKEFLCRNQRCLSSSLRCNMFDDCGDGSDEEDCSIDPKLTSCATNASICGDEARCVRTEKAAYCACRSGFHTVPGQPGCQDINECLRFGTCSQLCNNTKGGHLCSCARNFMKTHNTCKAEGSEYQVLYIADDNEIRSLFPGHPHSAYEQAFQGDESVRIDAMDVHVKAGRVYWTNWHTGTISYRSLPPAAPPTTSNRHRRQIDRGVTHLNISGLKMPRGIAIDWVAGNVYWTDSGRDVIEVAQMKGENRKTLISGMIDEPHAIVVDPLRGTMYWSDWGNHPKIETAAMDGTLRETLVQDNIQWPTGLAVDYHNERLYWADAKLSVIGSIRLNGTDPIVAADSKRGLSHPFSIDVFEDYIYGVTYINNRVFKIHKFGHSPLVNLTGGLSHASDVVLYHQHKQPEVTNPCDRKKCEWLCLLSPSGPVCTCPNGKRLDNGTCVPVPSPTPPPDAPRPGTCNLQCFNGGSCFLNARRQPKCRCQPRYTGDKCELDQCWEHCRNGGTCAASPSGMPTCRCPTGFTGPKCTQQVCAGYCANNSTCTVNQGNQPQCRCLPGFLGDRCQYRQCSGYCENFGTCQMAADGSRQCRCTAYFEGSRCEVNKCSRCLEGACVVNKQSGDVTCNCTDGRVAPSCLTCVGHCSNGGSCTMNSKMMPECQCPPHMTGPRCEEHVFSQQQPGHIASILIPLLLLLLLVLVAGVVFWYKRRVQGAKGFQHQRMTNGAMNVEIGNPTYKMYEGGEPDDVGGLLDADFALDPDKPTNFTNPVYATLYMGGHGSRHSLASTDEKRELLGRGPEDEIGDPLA

Results are given in words; binding and its absence hold for the method and conditions named. In cells and extracts the contact can be indirect. Some entries that bind do so weakly or less than the wild type.

The target of the assay is cell-surface receptor CD91 (human (endogenous in PANC-1)) (UniProt Q07954). The assay can be described thus: proximity ligation; PANC-1 cells in 0.5% serum medium treated 24 h with PBS or 15 μg/mL rHSP90α, without or with 10 μg/mL control IgG, Clone-2 or Clone-6 antibody; fixed with 3% paraformaldehyde; anti-CD91 plus anti-HSP90α antibodies, Duolink in situ PLA kit; only the binder purified.

As to “recombinant 732-a.a. full-length human HSP90α (from UniProt P07900 1-732)”, the binding result is listed as “binds”.
